The results in this text go back to PMC9561260.

Chains of the proteins cited; added tags and fusions are not shown.
UniProt P40763: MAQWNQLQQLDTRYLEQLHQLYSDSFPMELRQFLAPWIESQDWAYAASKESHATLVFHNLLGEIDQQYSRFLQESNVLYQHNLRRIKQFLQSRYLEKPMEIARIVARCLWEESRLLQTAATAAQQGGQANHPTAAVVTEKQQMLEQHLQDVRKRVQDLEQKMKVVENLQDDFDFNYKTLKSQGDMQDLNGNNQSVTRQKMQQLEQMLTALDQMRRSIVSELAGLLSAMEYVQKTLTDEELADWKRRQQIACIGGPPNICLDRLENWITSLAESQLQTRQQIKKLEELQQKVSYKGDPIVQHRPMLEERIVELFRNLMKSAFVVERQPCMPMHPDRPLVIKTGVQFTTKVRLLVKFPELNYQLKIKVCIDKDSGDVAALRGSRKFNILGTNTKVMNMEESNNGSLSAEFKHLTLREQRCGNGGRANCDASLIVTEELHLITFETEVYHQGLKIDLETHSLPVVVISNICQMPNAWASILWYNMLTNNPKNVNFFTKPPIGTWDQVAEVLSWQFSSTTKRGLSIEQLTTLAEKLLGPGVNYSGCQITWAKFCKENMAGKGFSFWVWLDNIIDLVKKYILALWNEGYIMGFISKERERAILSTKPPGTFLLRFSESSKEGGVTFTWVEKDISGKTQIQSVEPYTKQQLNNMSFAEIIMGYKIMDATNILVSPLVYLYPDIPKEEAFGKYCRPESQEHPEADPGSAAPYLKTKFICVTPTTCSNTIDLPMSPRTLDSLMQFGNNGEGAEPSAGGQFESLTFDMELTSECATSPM
UniProt Q09028: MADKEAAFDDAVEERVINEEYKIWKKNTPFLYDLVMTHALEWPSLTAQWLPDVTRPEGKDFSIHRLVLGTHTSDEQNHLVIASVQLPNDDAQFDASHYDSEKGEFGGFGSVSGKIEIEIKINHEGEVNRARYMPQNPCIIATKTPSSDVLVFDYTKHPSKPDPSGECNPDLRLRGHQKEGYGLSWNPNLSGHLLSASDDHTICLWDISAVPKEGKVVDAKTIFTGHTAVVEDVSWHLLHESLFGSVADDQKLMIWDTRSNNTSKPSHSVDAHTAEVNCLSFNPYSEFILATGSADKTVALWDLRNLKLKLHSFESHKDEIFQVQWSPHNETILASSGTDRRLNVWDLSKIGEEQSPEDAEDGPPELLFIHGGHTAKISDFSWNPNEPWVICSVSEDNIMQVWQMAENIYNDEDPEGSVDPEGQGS
UniProt Q9UQE7: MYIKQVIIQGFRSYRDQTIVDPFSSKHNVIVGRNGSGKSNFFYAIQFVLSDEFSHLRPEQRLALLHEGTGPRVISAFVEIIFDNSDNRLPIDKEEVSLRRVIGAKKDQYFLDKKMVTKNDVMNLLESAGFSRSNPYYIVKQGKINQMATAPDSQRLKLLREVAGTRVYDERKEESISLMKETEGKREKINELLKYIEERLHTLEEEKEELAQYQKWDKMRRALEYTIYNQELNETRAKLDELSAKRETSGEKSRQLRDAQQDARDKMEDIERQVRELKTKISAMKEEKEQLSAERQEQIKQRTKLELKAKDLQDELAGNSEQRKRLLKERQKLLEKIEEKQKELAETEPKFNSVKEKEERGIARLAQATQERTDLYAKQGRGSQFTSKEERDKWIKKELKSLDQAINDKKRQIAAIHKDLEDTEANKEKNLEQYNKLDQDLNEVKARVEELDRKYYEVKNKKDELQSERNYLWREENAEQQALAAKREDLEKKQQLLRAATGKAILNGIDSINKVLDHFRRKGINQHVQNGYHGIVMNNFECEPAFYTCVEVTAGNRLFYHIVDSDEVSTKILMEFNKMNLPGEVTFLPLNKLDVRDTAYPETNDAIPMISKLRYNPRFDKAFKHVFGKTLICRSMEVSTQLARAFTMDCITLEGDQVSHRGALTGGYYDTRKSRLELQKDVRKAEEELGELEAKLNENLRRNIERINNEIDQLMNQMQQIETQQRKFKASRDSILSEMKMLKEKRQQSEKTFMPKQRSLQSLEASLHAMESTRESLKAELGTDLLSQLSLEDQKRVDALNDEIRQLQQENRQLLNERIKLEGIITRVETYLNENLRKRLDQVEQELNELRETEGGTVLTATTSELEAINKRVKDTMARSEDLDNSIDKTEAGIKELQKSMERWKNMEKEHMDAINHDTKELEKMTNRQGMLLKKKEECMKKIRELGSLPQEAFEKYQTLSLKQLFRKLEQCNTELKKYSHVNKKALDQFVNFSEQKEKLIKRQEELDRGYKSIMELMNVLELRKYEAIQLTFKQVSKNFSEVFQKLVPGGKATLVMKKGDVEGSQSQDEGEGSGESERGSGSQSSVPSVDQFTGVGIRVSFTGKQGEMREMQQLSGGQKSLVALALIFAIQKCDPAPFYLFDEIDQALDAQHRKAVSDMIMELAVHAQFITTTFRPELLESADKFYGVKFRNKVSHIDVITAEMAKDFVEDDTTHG
UniProt O14776: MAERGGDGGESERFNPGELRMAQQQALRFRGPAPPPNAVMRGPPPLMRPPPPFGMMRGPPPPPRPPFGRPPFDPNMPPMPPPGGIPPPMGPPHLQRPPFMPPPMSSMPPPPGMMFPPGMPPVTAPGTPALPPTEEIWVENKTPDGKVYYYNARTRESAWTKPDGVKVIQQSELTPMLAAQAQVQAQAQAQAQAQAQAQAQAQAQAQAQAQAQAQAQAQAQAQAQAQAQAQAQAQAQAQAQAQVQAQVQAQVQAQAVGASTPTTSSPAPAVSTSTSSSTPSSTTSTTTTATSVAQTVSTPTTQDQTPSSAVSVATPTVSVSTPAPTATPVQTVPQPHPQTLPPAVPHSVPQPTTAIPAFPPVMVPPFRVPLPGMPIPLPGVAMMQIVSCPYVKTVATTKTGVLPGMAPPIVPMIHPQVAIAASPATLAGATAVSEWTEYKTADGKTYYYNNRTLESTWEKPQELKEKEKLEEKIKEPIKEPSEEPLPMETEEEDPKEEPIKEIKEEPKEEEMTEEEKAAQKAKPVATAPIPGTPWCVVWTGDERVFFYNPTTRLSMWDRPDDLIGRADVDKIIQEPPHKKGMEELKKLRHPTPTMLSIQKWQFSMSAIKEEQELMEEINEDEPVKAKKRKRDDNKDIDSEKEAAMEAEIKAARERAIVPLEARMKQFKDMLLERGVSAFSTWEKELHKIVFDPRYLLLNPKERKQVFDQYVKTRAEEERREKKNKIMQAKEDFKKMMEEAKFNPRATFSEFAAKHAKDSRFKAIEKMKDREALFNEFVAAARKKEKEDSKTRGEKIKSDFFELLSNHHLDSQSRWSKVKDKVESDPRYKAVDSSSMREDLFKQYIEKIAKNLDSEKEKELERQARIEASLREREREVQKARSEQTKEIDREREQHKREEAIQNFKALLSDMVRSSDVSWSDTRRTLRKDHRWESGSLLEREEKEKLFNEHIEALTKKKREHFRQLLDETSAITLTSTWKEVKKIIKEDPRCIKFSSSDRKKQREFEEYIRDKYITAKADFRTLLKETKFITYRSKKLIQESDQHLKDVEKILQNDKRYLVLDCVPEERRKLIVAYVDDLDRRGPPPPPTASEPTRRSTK
UniProt Q5JVF3: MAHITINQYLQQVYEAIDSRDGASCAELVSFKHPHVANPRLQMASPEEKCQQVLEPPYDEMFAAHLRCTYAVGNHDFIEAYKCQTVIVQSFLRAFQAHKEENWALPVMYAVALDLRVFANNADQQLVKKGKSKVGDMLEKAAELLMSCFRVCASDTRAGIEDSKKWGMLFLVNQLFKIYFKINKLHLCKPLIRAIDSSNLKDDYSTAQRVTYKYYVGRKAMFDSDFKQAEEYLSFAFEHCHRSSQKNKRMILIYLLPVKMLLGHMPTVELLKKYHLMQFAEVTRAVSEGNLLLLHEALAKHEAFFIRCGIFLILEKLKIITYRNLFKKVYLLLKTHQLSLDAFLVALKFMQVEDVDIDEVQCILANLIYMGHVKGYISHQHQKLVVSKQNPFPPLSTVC
UniProt P08047: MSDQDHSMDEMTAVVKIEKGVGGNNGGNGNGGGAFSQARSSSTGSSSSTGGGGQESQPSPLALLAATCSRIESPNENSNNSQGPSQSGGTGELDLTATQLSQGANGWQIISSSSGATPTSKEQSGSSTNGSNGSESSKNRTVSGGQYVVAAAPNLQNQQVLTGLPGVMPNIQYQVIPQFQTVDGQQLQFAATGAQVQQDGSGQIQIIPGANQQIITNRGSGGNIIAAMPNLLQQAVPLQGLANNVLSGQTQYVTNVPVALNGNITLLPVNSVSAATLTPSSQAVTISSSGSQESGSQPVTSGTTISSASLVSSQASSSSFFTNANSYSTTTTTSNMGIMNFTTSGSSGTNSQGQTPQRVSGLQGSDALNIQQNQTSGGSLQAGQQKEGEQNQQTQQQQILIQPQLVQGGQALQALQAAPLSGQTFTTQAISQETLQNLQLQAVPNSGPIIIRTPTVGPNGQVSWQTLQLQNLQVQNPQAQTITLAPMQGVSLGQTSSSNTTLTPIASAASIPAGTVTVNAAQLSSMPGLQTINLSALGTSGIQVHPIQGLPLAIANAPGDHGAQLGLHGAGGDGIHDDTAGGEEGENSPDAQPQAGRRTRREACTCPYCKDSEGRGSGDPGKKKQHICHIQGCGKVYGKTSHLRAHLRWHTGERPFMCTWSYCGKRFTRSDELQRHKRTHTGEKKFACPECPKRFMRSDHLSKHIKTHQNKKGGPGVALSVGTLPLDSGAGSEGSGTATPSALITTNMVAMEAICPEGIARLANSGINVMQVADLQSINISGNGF
UniProt P35226: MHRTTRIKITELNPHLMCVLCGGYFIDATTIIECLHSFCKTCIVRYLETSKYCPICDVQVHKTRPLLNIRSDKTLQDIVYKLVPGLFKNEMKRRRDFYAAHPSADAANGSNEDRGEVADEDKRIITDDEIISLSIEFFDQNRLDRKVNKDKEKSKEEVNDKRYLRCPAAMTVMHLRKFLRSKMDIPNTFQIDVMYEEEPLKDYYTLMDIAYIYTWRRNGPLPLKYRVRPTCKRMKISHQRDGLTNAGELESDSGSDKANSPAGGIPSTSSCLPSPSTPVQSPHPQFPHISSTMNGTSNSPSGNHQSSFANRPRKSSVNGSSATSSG
UniProt O60216: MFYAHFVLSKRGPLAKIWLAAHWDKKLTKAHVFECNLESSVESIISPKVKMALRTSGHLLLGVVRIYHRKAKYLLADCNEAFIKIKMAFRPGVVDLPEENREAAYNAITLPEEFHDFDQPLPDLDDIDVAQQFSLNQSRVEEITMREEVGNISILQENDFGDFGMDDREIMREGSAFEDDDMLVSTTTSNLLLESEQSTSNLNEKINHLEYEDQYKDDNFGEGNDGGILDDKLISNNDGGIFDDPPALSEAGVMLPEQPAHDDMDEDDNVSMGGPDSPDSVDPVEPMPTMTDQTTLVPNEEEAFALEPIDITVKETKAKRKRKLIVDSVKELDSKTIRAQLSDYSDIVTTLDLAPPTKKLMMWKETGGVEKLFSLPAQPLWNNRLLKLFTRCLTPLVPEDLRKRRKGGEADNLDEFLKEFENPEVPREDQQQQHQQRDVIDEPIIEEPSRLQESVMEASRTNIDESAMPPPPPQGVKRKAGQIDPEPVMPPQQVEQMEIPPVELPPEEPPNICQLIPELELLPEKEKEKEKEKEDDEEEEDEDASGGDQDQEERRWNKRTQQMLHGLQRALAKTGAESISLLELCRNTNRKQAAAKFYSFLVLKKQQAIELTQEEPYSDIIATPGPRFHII
UniProt Q9UJA3: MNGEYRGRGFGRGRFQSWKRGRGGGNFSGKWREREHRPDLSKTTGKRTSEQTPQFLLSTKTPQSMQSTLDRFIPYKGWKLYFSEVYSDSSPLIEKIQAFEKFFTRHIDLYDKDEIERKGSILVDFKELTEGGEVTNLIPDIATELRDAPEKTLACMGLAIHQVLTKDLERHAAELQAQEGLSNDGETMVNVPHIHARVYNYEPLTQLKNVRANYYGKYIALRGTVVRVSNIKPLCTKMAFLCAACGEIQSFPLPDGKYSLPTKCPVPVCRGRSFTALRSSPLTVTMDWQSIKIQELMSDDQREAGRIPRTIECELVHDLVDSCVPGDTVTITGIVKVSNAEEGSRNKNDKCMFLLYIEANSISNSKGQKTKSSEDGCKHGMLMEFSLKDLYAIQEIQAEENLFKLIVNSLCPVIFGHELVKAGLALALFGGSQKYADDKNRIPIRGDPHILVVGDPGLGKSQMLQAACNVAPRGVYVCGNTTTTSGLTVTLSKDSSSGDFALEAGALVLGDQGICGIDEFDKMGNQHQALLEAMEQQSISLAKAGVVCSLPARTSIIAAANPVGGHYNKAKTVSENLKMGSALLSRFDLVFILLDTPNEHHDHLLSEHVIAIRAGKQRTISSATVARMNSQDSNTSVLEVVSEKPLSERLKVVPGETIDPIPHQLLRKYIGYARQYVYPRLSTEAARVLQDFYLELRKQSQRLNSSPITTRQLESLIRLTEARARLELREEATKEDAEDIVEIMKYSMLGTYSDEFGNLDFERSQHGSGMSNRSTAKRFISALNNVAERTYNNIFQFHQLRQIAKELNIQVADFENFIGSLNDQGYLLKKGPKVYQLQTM

The target in the experiment is T1, 2× HA-3× FLAG-Eya1 (UniProt P97767).
T1 sequence: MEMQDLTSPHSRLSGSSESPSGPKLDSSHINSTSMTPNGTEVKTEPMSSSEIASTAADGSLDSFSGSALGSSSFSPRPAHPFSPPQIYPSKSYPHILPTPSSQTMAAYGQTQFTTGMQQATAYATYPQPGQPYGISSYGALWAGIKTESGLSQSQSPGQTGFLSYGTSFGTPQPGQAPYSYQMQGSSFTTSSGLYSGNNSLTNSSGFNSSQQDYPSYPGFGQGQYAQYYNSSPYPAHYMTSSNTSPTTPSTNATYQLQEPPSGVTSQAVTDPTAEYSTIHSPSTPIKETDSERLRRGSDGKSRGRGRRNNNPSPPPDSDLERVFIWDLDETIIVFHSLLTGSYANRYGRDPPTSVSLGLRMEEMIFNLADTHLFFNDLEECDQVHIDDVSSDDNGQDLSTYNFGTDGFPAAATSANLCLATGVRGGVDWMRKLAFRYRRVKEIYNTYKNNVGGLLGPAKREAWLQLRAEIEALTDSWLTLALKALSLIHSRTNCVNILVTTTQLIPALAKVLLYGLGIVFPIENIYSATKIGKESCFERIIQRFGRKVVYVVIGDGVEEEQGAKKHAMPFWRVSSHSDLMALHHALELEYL
Kind of experiment: affinity purification with mass spectrometry; tandem purification of HF-Eya1 from lysate of stable HEK293 cells: anti-FLAG M2 beads, FLAG peptide elution, then anti-HA agarose; 50 mM Tris-HCl pH 7.5, 150 mM NaCl, 0.1% Nonidet P-40, 4°C; 12 bands (B1-B12) cut from a silver-stained gel.

Results are given in words; binding and its absence hold for the method and conditions named. Binding seen in cells or lysates may run through a third protein. Here binding means that the protein was enriched with, or labelled near, the bait; the list need not be complete. Sequences can lack the tags named with a protein.

“Condensin complex subunit 2 (from UniProt A8K4T8 1-741)”: the binding entry is “binds”.

As for RAD50 (from UniProt Q92878 1-1312), the binding result is “binds”.

In the case of “signal transducer and activator STAT1 (from UniProt P42224 1-750)”, the binding result is recorded as “binds”.

Consider “signal transducer and activator STAT3 (from UniProt P40763 1-770)”, for which the binding entry is listed as “binds”.

As for RBBP4 (from UniProt Q09028 1-425), the binding result is “binds”.

As to SMC3 (from UniProt Q9UQE7 1-1217), the binding entry is “binds”.

Regarding “transcription elongation regulator TCERG1 (from UniProt O14776 1-1098)”, the binding entry is reported as “binds”.

In the case of “PCID2 (cell survival and cell-cycle) (from UniProt Q5JVF3 1-399)”, the binding entry was “binds”.

Turning to MSH3 (from UniProt P20585 1-1137), the binding entry is listed as “binds”.

Regarding “RPTOR (mTOR associated regulatory protein) (from UniProt Q8N122 1-1335)”, the binding entry is given as “binds”.

Consider Sp1 (from UniProt P08047 1-785), for which the binding result is “binds”.

Consider “PDCD6IP (programmed cell death 6-interacting protein) (from UniProt Q8WUM4 1-868)”, for which the binding entry was “binds”.

SMC2 (from UniProt O95347 1-1197): the binding entry is on record as “binds”.

Take BMI1 (from UniProt P35226 1-326): the binding result is reported as “binds”.

Regarding “CHTF18 (chromosome cohesion factor) (from UniProt Q8WVB6-2 1-1003)”, the binding result was “binds”.

For the molecule “RAD21 (double-strand-break repair protein) (from UniProt O60216 1-631)”, the binding result is reported as “binds”.

For MCM8 (from UniProt Q9UJA3 1-840), the binding entry is recorded as “binds”.

For the molecule MSH6 (from UniProt P52701 1-1360), the binding result is “binds”.

For “HDAC1 (histone deacetylase 1) (from UniProt Q13547 1-482)”, the binding result is “binds”.

B1: transcriptional activator PURA (protein, UniProt Q00577 1-322)
chain: MADRDSGSEQGGAALGSGGSLGHPGSGSGSGGGGGGGGGGGGSGGGGGGAPGGLQHETQELASKRVDIQNKRFYLDVKQNAKGRFLKIAEVGAGGNKSRLTLSMSVAVEFRDYLGDFIEHYAQLGPSQPPDLAQAQDEPRRALKSEFLVRENRKYYMDLKENQRGRFLRIRQTVNRGPGLGSTQGQTIALPAQGLIEFRDALAKLIDDYGVEEEPAELPEGTSLTVDNKRFFFDVGSNKYGVFMRVSEVKPTYRNSITVPYKVWAKFGHTFCKYSEEMKKIQEKQREKRAACEQLHQQQQQQQEETAAATLLLQGEEEGEED
Take B1: the binding result is “binds”.

B2: highly divergent homeobox protein HDX (protein, UniProt Q7Z353 1-690)
chain: MNLRSVFTVEQQRILQRYYENGMTNQSKNCFQLILQCAQETKLDFSVVRTWVGNKRRKMSSKNSESGTATTGTSLSAPDITVRNVVNIARPSSQQSSWTSANNDVIVTGIYSPASSSSRQGTNKHTDTQITEAHKIPIQKTATKNDTEFQLHIPVQRQVAHCKNASLLLGEKTIILSRQTSVLNAGNSVFNHAKKNYGNSSVQASEMTVPQKPSVCHRPCKIEPVGIQRSYKPEHTGPALHNLCGQKPTIRDPYCRTQNLEIREVFSLAVSDYPQRILGGNAPQKPSSAEGNCLSIAMETGDAEDEYAREEELASMRAQIPSYSRFYESGSSLRAENQSTTLPGPGRNMPNSQMVNIRDMSDNVLYQNRNYHLTPRTSLHTASSTMYSNTNPLRSNFSPHFASSNQLRLSQNQNNYQISGNLTVPWITGCSRKRALQDRTQFSDRDLATLKKYWDNGMTSLGSVCREKIEAVATELNVDCEIVRTWIGNRRRKYRLMGIEVPPPRGGPADFSEQPESGSLSALTPGEEAGPEVGEDNDRNDEVSICLSEGSSQEEPNEVVPNDARAHKEEDHHAVTTDNVKIEIIDDEESDMISNSEVEQVNSFLDYKNEEVKFIENELEIQKQKYFKLQTFVRSLILAMKADDKEQQQALLSDLPPELEEMDFNHASLEPDDTSFSVSSLSEKNVSESL
Turning to B2, the binding entry is given as “binds”.

B3: ZNF281 (protein, UniProt Q9Y2X9 1-895)
chain: MKIGSGFLSGGGGTGSSGGSGSGGGGSGGGGGGGSSGRRAEMEPTFPQGMVMFNHRLPPVTSFTRPAGSAAPPPQCVLSSSTSAAPAAEPPPPPAPDMTFKKEPAASAAAFPSQRTSWGFLQSLVSIKQEKPADPEEQQSHHHHHHHHYGGLFAGAEERSPGLGGGEGGSHGVIQDLSILHQHVQQQPAQHHRDVLLSSSSRTDDHHGTEEPKQDTNVKKAKRPKPESQGIKAKRKPSASSKPSLVGDGEGAILSPSQKPHICDHCSAAFRSSYHLRRHVLIHTGERPFQCSQCSMGFIQKYLLQRHEKIHSREKPFGCDQCSMKFIQKYHMERHKRTHSGEKPYKCDTCQQYFSRTDRLLKHRRTCGEVIVKGATSAEPGSSNHTNMGNLAVLSQGNTSSSRRKTKSKSIAIENKEQKTGKTNESQISNNINMQSYSVEMPTVSSSGGIIGTGIDELQKRVPKLIFKKGSRKNTDKNYLNFVSPLPDIVGQKSLSGKPSGSLGIVSNNSVETIGLLQSTSGKQGQISSNYDDAMQFSKKRRYLPTASSNSAFSINVGHMVSQQSVIQSAGVSVLDNEAPLSLIDSSALNAEIKSCHDKSGIPDEVLQSILDQYSNKSESQKEDPFNIAEPRVDLHTSGEHSELVQEENLSPGTQTPSNDKASMLQEYSKYLQQAFEKSTNASFTLGHGFQFVSLSSPLHNHTLFPEKQIYTTSPLECGFGQSVTSVLPSSLPKPPFGMLFGSQPGLYLSALDATHQQLTPSQELDDLIDSQKNLETSSAFQSSSQKLTSQKEQKNLESSTGFQIPSQELASQIDPQKDIEPRTTYQIENFAQAFGSQFKSGSRVPMTFITNSNGEVDHRVRTSVSDFSGYTNMMSDVSEPCSTRVKTPTSQSYR
Take B3: the binding result is on record as “binds”.

B4: RFX/X-box TF RFX1 (protein, UniProt P22670 1-979)
chain: MATQAYTELQAAPPPSQPPQAPPQAQPQPPPPPPPAAPQPPQPPTAAATPQPQYVTELQSPQPQAQPPGGQKQYVTELPAVPAPSQPTGAPTPSPAPQQYIVVTVSEGAMRASETVSEASPGSTASQTGVPTQVVQQVQGTQQRLLVQTSVQAKPGHVSPLQLTNIQVPQQALPTQRLVVQSAAPGSKGGQVSLTVHGTQQVHSPPEQSPVQANSSSSKTAGAPTGTVPQQLQVHGVQQSVPVTQERSVVQATPQAPKPGPVQPLTVQGLQPVHVAQEVQQLQQVPVPHVYSSQVQYVEGGDASYTASAIRSSTYSYPETPLYTQTASTSYYEAAGTATQVSTPATSQAVASSGSMPMYVSGSQVVASSTSTGAGASNSSGGGGSGGGGGGGGGGGGGGSGSTGGGGSGAGTYVIQGGYMLGSASQSYSHTTRASPATVQWLLDNYETAEGVSLPRSTLYCHYLLHCQEQKLEPVNAASFGKLIRSVFMGLRTRRLGTRGNSKYHYYGLRIKASSPLLRLMEDQQHMAMRGQPFSQKQRLKPIQKMEGMTNGVAVGQQPSTGLSDISAQVQQYQQFLDASRSLPDFTELDLQGKVLPEGVGPGDIKAFQVLYREHCEAIVDVMVNLQFTLVETLWKTFWRYNLSQPSEAPPLAVHDEAEKRLPKAILVLLSKFEPVLQWTKHCDNVLYQGLVEILIPDVLRPIPSALTQAIRNFAKSLESWLTHAMVNIPEEMLRVKVAAAGAFAQTLRRYTSLNHLAQAARAVLQNTAQINQMLSDLNRVDFANVQEQASWVCRCEDRVVQRLEQDFKVTLQQQNSLEQWAAWLDGVVSQVLKPYQGSAGFPKAAKLFLLKWSFYSSMVIRDLTLRSAASFGSFHLIRLLYDEYMYYLIEHRVAQAKGETPIAVMGEFANLATSLNPLDPDKDEEEEEEEESEDELPQDISLAAGGESPALGPETLEPPAKLARTDARGLFVQALPSS
Take B4: the binding result is given as “binds”.

B5: non-POU domain-containing octamer-binding protein NONO (protein, UniProt Q15233 1-471)
chain: MQSNKTFNLEKQNHTPRKHHQHHHQQQHHQQQQQQPPPPPIPANGQQASSQNEGLTIDLKNFRKPGEKTFTQRSRLFVGNLPPDITEEEMRKLFEKYGKAGEVFIHKDKGFGFIRLETRTLAEIAKVELDNMPLRGKQLRVRFACHSASLTVRNLPQYVSNELLEEAFSVFGQVERAVVIVDDRGRPSGKGIVEFSGKPAARKALDRCSEGSFLLTTFPRPVTVEPMDQLDDEEGLPEKLVIKNQQFHKEREQPPRFAQPGSFEYEYAMRWKALIEMEKQQQDQVDRNIKEAREKLEMEMEAARHEHQVMLMRQDLMRRQEELRRMEELHNQEVQKRKQLELRQEEERRRREEEMRRQQEEMMRRQQEGFKGTFPDAREQEIRMGQMAMGGAMGINNRGAMPPAPVPAGTPAPPGPATMMPDGTLGLTPPTTERFGQAATMEGIGAIGGTPPAFNRAAPGAEFAPNKRRRY
In the case of B5, the binding result is recorded as “binds”.

B6: ZNF622 (protein, UniProt Q969S3 1-477)
chain: MATYTCITCRVAFRDADMQRAHYKTDWHRYNLRRKVASMAPVTAEGFQERVRAQRAVAEEESKGSATYCTVCSKKFASFNAYENHLKSRRHVELEKKAVQAVNRKVEMMNEKNLEKGLGVDSVDKDAMNAAIQQAIKAQPSMSPKKAPPAPAKEARNVVAVGTGGRGTHDRDPSEKPPRLQWFEQQAKKLAKQQEEDSEEEEEDLDGDDWEDIDSDEELECEDTEAMDDVVEQDAEEEEAEEGPPLGAIPITDCLFCSHHSSSLMKNVAHMTKDHSFFIPDIEYLSDIKGLIKYLGEKVGVGKICLWCNEKGKSFYSTEAVQAHMNDKSHCKLFTDGDAALEFADFYDFRSSYPDHKEGEDPNKAEELPSEKNLEYDDETMELILPSGARVGHRSLMRYYKQRFGLSRAVAVAKNRKAVGRVLQQYRALGWTGSTGAALMRERDMQYVQRMKSKWMLKTGMKNNATKQMHFRVQVRF
Take B6: the binding result is reported as “binds”.
